SMILES strings stand for the structures. Some of the results follow. Shown are side measurements of this screen, not its main read-out; they come without a call. The list favours compounds with an active or inconclusive main result. Potencies come from curve fits of mixed quality, noted in brackets.

A short description of the assay: qHTS Assay for Modulators of Lamin A Splicing. To be noted: HeLa LMNA splicing GFP/RFP minigene ratio, 48 h. The procedure, abridged:
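Read-out is the ratio of GFP to DsRed2 object intensity, acquired by 488 nm laser-scanning cytometry on HeLa lamin A-EGFP minigene reporter cells. Compound incubation 48 hrs at 37 °C in Opti-MEM with 2% FBS; DMSO 0.5% final.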
For orientation: In qHTS, concentration-response curves come from the screen itself.

Setting [1] is: measured here: RFP viability control channel.
[2] abbreviates: measured here: GFP splicing reporter channel.

As to `CS(=O)(=O)Nc1ccc(C2=NN(S(C)(=O)=O)C(c3cccs3)C2)cc1` (stereo unspecified), the AC50 under setting [1] was 0.0224 µM [falling, single point].

Consider `O=c1c(-c2cc(F)cc(F)c2)nc2cnc(N3CCNCC3)nc2n1C1CC1`, for which the AC50 is, setting by setting: under setting [2], 15.8 µM [falling, partial curve]; under setting [1], 14.1 µM [falling, single point].

For the compound `CCOC(=O)c1c(NC(=O)CC(C)C)sc(C(C)=O)c1C`, the AC50 was 20 µM [rising, single point] under setting [2] and 15.8 µM [rising, single point] under setting [1].

Regarding `C=CCSC(=C(C#N)C#N)c1cc2c([nH]1)CCCC2`, the AC50 reads like this: under setting [2], 10 µM [falling, single point]; under setting [1], 35.5 µM [falling, single point].

Turning to `O=C1c2ccccc2NC(c2ccc(Cl)cc2Cl)N1O` (stereo unspecified), under setting [2], the AC50 was 22.4 µM [falling, single point].

On to `CCC(Sc1nc2cc3c(cc2c(=O)n1CCCC(=O)NCc1ccc(OC)cc1)OCO3)C(=O)NCCCOC` (stereo unspecified), for which the AC50 under setting [2] was 3.98 µM [falling, single point] and the AC50 under setting [1] is 3.16 µM [falling, single point].

As to `CC(C)(C)N(Cc1ccccc1)C(=O)COC(=O)Cn1cnc2ccccc2c1=O`, the AC50 under setting [1] is 2.51 µM [falling, full curve].

For `COc1ccc(-c2nnc(SCC(=O)c3ccc[nH]3)n2-c2ccccc2)cc1`, the AC50 was 0.631 µM [rising, partial curve, poor fit] under setting [2] and 35.5 µM [rising, single point] under setting [1].

For the compound `COc1cccc(C(=O)CSc2nnc(COc3cccc4cccnc34)o2)c1`, the AC50 under setting [1] was 1.58 µM [rising, full curve, poor fit].

`O=c1[nH]nc(Sc2ncnc3sccc23)n1CCc1ccccc1`: under setting [1], the AC50 was 10 µM [rising, partial curve].

Turning to `CN1/C(=C\C(=S)Nc2ccccc2)C(C)(C)c2ccccc21`, the AC50 under setting [2] was 6.31 µM [falling, partial curve] and the AC50 under setting [1] is 0.891 µM [falling, full curve].

For the compound `Cc1ccc2nc(N3CCC(C(=O)NCc4ccc(F)cc4)CC3)[nH]c2c1`, under setting [1], the half-maximal activity concentration (AC50) was 1.12 µM [rising, full curve, poor fit].

For `CCOC(=O)C(=Cc1cn(C)c2ccc(S(=O)(=O)N(C)C)cc12)C(=O)OCC`, the AC50 runs as follows: under setting [2], 1.12 µM [falling, partial curve]; under setting [1], 0.794 µM [falling, single point].

For `CSc1nc(C2CC2)cc(-c2cccs2)c1C#N`, the concentration at half-maximal activity (AC50) was 35.5 µM [falling, single point] under setting [2] and 35.5 µM [falling, single point] under setting [1].

As for `CN(C)/C=N/c1cc(=O)n(C)c(=O)n1Cc1ccccc1`, the AC50 under setting [1] is 11.2 µM [rising, partial curve, poor fit].

For the compound `CCN(CC)C(=O)Cn1cc(S(=O)(=O)CC(=O)NCc2ccc3c(c2)OCO3)c2ccccc21`, under setting [2], the AC50 is 0.0316 µM [rising, full curve, poor fit].

As for `COc1cc(OC)cc(-c2nnc(SCC(=O)N3CCCc4ccccc43)o2)c1`, the AC50 by setting is: under setting [2], 35.5 µM [rising, single point]; under setting [1], 20 µM [rising, single point].

For the compound `Cc1ccc(CCNC(=O)c2ccc(CS(=O)(=O)Cc3cccc(C)c3)o2)cc1`, the AC50 is 0.0112 µM [falling, full curve, poor fit] under setting [2] and 0.02 µM [falling, full curve, poor fit] under setting [1].

For the compound `COc1ccc2nc(C)cc(SCC(=O)N/N=C/c3ccc(O)cc3O)c2c1`, the AC50 under setting [1] is 12.6 µM [rising, partial curve].

On to `CC(C)(C)C(=O)Nc1cccc(OC(F)(F)C(F)Cl)c1` (stereo unspecified), for which, under setting [1], the AC50 is 0.00316 µM [falling, full curve, poor fit].

For the compound `COC(=O)c1c(NC(=O)CSc2ncnc3c2cnn3-c2ccccc2Cl)sc2c1CCCC2`, under setting [1], the AC50 is 12.6 µM [rising, partial curve].

Turning to `CN(C)c1nc(N2CCOCC2)nc(N(c2ccccc2)c2ccccc2)n1`, under setting [1], the AC50 was 35.5 µM [rising, single point].

Consider `O=S(=O)(O)C1CCNCC1`, for which the AC50 reads like this: under setting [2], 11.2 µM [rising, partial curve]; under setting [1], 7.08 µM [rising, full curve, poor fit].

Consider `COc1ccc2c(c1)C(SCC(=O)NCCc1ccc(Cl)cc1)CC(C)(C)O2` (stereo unspecified), for which the half-maximal activity concentration (AC50) under setting [1] is 12.6 µM [rising, single point].

Turning to `O=c1c2cn[nH]c2nc(SCc2ccccc2F)n1-c1ccc(Br)cc1`, the AC50 under setting [2] is 0.0794 µM [rising, full curve, poor fit].

On to `CC(OC(=O)c1oc2ccccc2c1CSC1CCCCC1)C(=O)NC(N)=O` (stereo unspecified), for which the AC50 is, setting by setting: under setting [2], 14.1 µM [falling, partial curve, poor fit]; under setting [1], 17.8 µM [falling, single point].

For the compound `NC(=O)c1ccsc1NC(=O)COC(=O)Cc1cccc2ccccc12`, under setting [1], the AC50 was 11.2 µM [rising, partial curve].

Regarding `COc1ccc(NS(=O)(=O)c2cccc(Cl)c2Cl)cc1S(=O)(=O)N1CCCCC1`, the AC50 under setting [1] is 5.62 µM [rising, partial curve].

Turning to `CC(C)NC(=O)COC(=O)C1CSC2(c3ccc(Br)cc3)CCC(=O)N12` (stereo unspecified), under setting [2], the AC50 is 0.355 µM [rising, full curve].

With `Oc1c(C(Nc2nc3ccccc3s2)c2ccco2)ccc2cccnc12` (stereo unspecified), the AC50 was 2.82 µM [rising, single point] under setting [2] and 5.62 µM [rising, single point] under setting [1].

Consider `CCN(CC)c1ccc(C(=O)OCc2cc(=O)oc3cc(O)ccc23)cc1`, for which the AC50 was 20 µM [falling, partial curve, poor fit] under setting [2] and 17.8 µM [falling, partial curve] under setting [1].

Take `Cc1cc(C)n(CCN(C)C(=O)CCc2nnc(-c3ccc4c(c3)OCO4)o2)n1`: the AC50 under setting [2] was 0.00355 µM [falling, full curve, poor fit].

As to `S=c1[nH]nc(CSc2nc3ccccc3s2)n1C1CCCCC1`, the AC50 is 8.91 µM [rising, single point] under setting [2] and 35.5 µM [rising, single point] under setting [1].

Take `C=CCn1c(SCC(=O)Nc2cccc(C)c2)nnc1-c1cnccn1`: the AC50 under setting [2] was 31.6 µM [rising, single point].

With `COc1ccc(NC(=O)c2cc(S(=O)(=O)NCCC3=CCCCC3)ccc2F)cc1`, the AC50 under setting [1] was 15.8 µM [rising, single point].

Regarding `O=C(NCCc1csc(-c2ccc(Cl)cc2)n1)c1cccs1`, the AC50 under setting [2] was 7.08 µM [falling, partial curve, poor fit] and the AC50 under setting [1] was 22.4 µM [falling, partial curve, poor fit].

`CC(=O)c1c(C)[nH]c(C(=O)OCC(=O)N2CCN(S(=O)(=O)c3ccc(C)cc3C)CC2)c1C`: the AC50 under setting [1] was 31.6 µM [rising, single point].

Turning to `COC(=O)CCCCCN1C(=O)NC(c2ccc(-c3ccccc3)cc2)C(C(=O)OCc2ccccc2)=C1C` (stereo unspecified), under setting [1], the AC50 was 25.1 µM [rising, single point].

For the compound `CCc1cc2c(=O)n(-c3ccc(C)cc3)cnc2s1`, the AC50 under setting [1] is 17.8 µM [rising, partial curve].

As to `Nc1[nH]ncc1-c1ccccc1`, the AC50 under setting [1] was 0.0112 µM [falling, full curve, poor fit].

For the compound `COc1ccc(NC(=O)CCNS(=O)(=O)c2cccc3nsnc23)cc1`, the concentration at half-maximal activity (AC50) under setting [2] was 0.00447 µM [falling, full curve, poor fit].

With `CCn1c(SCC(=O)c2ccccc2)nnc1-c1cccnc1`, the AC50 under setting [2] is 2.82 µM [rising, single point].

On to `O=C(Nc1cccc(Br)c1)N1CCC(CN2CCCCC2)CC1`, for which the AC50 under setting [1] was 5.62 µM [falling, partial curve, poor fit].

Turning to `O=C(NCC(c1cccs1)N1CCOCC1)c1ccccc1NS(=O)(=O)c1ccc(Cl)cc1` (stereo unspecified), the AC50 under setting [1] is 0.01 µM [rising, full curve, poor fit].

Take `CC(O)c1cccc(NC(=O)CCCc2ccccc2)c1` (stereo unspecified): the AC50 reads like this: under setting [2], 7.08 µM [falling, full curve]; under setting [1], 0.224 µM [falling, full curve, poor fit].

In the case of `CC1CCCCC1NS(=O)(=O)c1ccc(S(=O)(=O)N2CCCC2)cc1` (stereo unspecified), the AC50 was 11.2 µM [rising, single point] under setting [2] and 12.6 µM [rising, single point] under setting [1].

For `COc1ccc(S(=O)(=O)N2CCCC2c2cccs2)cc1` (stereo unspecified), the AC50 is, setting by setting: under setting [2], 25.1 µM [falling, partial curve, poor fit]; under setting [1], 0.00501 µM [falling, full curve, poor fit].

As to `CC(C)(C)c1ccc(OCc2nc(-c3ccccn3)no2)c(Br)c1`, the AC50 reads like this: under setting [2], 3.55 µM [rising, partial curve]; under setting [1], 17.8 µM [rising, partial curve, poor fit].

On to `CCCCOC(=O)Cn1cnc2ccc(Br)cc2c1=O`, for which the half-maximal activity concentration (AC50) under setting [1] was 4.47 µM [falling, partial curve, poor fit].

For `COc1ccccc1NS(=O)(=O)c1ccc(NN=C2CCCCC2)c([N+](=O)[O-])c1`, the AC50 was 12.6 µM [rising, partial curve] under setting [2] and 22.4 µM [rising, single point] under setting [1].

With `CC1C(=O)CC(c2ccc([N+](=O)[O-])cc2)NC1c1ccc([N+](=O)[O-])cc1` (stereo unspecified), under setting [1], the AC50 was 0.0398 µM [rising, full curve, poor fit].

On to `COc1ccc(NC(=O)Cn2nnc(-c3ccccc3NS(=O)(=O)c3ccc(OC)cc3)n2)cc1`, for which the AC50 under setting [1] is 3.98 µM [rising, single point].

On to `CC(C)c1nc(SCC(=O)Nc2ccc(N3CCOCC3)cc2)c2ccccc2n1`, for which the AC50 under setting [1] is 11.2 µM [rising, partial curve, poor fit].

`CCOc1ccc(C(=O)c2nc3c(n2O)CCCCC3)cc1`: the concentration at half-maximal activity (AC50) reads like this: under setting [2], 31.6 µM [falling, single point]; under setting [1], 17.8 µM [falling, single point].

As a reminder, the AC50 is the concentration giving half of the maximal activity seen.

These data come from PubChem BioAssay AID1487 (National Center for Advancing Translational Sciences (NCATS), 2009).
